This note sets out measurements from publication doi:10.1101/2025.05.10.653276 (bioRxiv, 2025).

For experiment [1], the system named is B. ovis. The experiment can be described thus: microbe, parasite or virus in culture. The experiment is classed as cell-based. To be noted: Brucella ovis, THP-1, read-out: Intracellular IC50.
Experiment [2] deals with B. ovis. As to the kind of experiment: microbe, parasite or virus in culture. It counts as cell-based. The following applies: Brucella ovis, read-out: Axenic IC50.

The structures appear in SMILES notation. Like-named read-outs stand apart in the source and are kept apart here.

Regarding `O=C1CCc2ccc(OCCCCN3CCN(c4cccc(Cl)c4Cl)CC3)cc2N1` [Aripiprazole], the IC50 with B. ovis [1] is 4 µM; in the experiment on B. ovis [2], greater than 50 µM.

The term IC50 denotes the concentration needed to halve the response being measured.
